Results: PubChem BioAssay AID330 (DTP/NCI, 2004)
The list does not hold the whole screen: it gathers tests that were run many times, whatever their T/C, doses with no T/C, and many T/C values between a quarter and a half above the control. Other doses and runs of a compound stand elsewhere. T/C is the treated group as % of the vehicle group. Some entries give survivors of the animals treated and no T/C: the source holds a T/C of zero for them, seemingly a mark for toxic or unscored doses. Some survivor counts are full or nearly so, which does not show that the dose was tolerated: the source hardly ever lists a survival T/C far under the control, and the zero likely stands for such cases as well. Survivors were counted at the toxicity check, usually on the fifth day, unless a day is given; later deaths do not show. Schedules are NCI's codes, read here as Q, the interval in days (D) or hours (H), X, the number of doses. For survival time, this PubChem deposit counts one and a half times the control or more as active, and values a quarter to a half above the control carry no call in these data; other NCI protocols may use other cut-offs. Some entries hold several experiments; the values are given in rising order. Some T/C values are followed by the survivors on the day toxicity was checked, most often the fifth; without a count, all were alive then.

System: P388 leukemia ip, CD2F1 mice, survival T/C
Assay: NCI In Vivo Anticancer Drug Screen. Data for tumor model P388 Leukemia (intraperitoneal) in CD2F1 (CDF1) mice
Details: T/C endpoint: median survival time, higher T/C = longer survival
[1] = dose: 200.0 mg/kg/injection, schedule: Q04DX003 (ip), vehicle: saline with Tween-80
[2] = dose: 200.0 mg/kg/injection, schedule: Q01DX005 (ip), vehicle: Klucel (hydroxypropylcellulose) (HPC)
[3] = dose: 100.0 mg/kg/injection, schedule: Q01DX005 (ip), vehicle: saline with Tween-80
[4] = dose: 200.0 mg/kg/injection, schedule: Q01DX009 (ip), vehicle: saline with Tween-80

Q: Which results are given for `CC1(O)Cc2c(O)c3c(c(O)c2CC1O)C(=O)C=CC3=O` (stereo unspecified)?
A: survivor count (dose: 50.0 mg/kg/injection, schedule: Q04DX003 (ip), vehicle: distilled water + Tween-80): 0 of 6; survivor count (dose: 100.0 mg/kg/injection, schedule: Q04DX003 (ip), vehicle: distilled water + Tween-80): 0 of 6; survivor count (dose: 200.0 mg/kg/injection, schedule: Q04DX003 (ip), vehicle: distilled water + Tween-80): 0 of 6

Q: Which survivor count (dose: 100.0 mg/kg/injection, schedule: Q04DX003 (ip), vehicle: Klucel (hydroxypropylcellulose) (HPC)) does the source give for `CN([NH-])C(=S)[S-].CN([NH-])C(=S)[S-].[Ni]` here?
A: 3 of 6

Q: And the survivor count [1]?
A: 5 of 6

Q: Which results are given for `N/C(=N\O)c1cn(C2OC(CO)C(O)C2O)c2ncnc(N)c12` (stereo unspecified)?
A: T/C (dose: 0.3 mg/kg/injection, schedule: Q01DX009 (ip), vehicle: saline sonified): 140 % of control; T/C (dose: 0.6 mg/kg/injection, schedule: Q01DX009 (ip), vehicle: saline sonified): 145 % of control; T/C (dose: 1.25 mg/kg/injection, schedule: Q01DX009 (ip), vehicle: saline sonified): 140 % of control; survivor count (dose: 10.0 mg/kg/injection, schedule: Q01DX009 (ip), vehicle: saline sonified): 6 of 6; survivor count (dose: 20.0 mg/kg/injection, schedule: Q01DX009 (ip), vehicle: saline sonified): 5 of 6

Q: `Cc1cc2c(cc1C)C(=O)c1c(O)c3c(c(O)c1C2=O)C[C@@](O)(C(=O)CO)C[C@@H]3OC1CC(N)C(O)C(C)O1` (stereo partly specified) was tested. Which T/C (dose: 1.56 mg/kg/injection, schedule: Q04DX003 (ip), vehicle: water) did it give?
A: 136 % of control

Q: What about the T/C (dose: 12.5 mg/kg/injection, schedule: Q04DX003 (ip), vehicle: water) of the same compound?
A: 130 % of control

Q: How did the survivor count (dose: 200.0 mg/kg/injection, schedule: Q04DX003 (ip), vehicle: saline) turn out when `CC[N+](C)(CC)CC(C)C1NS(=O)(=O)c2ccccc21` (stereo unspecified) was run?
A: 6 of 6

Q: What about the survivor count (dose: 400.0 mg/kg/injection, schedule: Q04DX003 (ip), vehicle: saline) of the same compound?
A: 0 of 6

Q: Which T/C (dose: 0.78 mg/kg/injection, schedule: Q01DX009 (ip), vehicle: saline with Tween-80) does the source give for `Cc1c2oc3c(C)ccc(C(=O)NC4C(=O)NC(C(C)C)C(=O)N5CCCCC5C(=O)N(C)CC(=O)N(C)C(C(C)C)C(=O)OC4C)c3nc-2c(C(=O)NC2C(=O)NC(C(C)C)C(=O)N3CCCCC3C(=O)N(C)CC(=O)N(C)C(C(C)C)C(=O)OC2C)c(N)c1=O` (stereo unspecified) here?
A: 139 % of control

Q: And the T/C (dose: 1.56 mg/kg/injection, schedule: Q01DX009 (ip), vehicle: saline with Tween-80)?
A: 140 % of control

Q: What about the T/C (dose: 3.13 mg/kg/injection, schedule: Q01DX009 (ip), vehicle: saline with Tween-80) of the same compound?
A: 149 % of control

Q: Which survivor count [2] does the source give for `Cc1cccc2nc(-c3ccccn3)n(CCc3ccccn3)c12` here?
A: 3 of 6

Q: For `CCC(=O)n1nc(Nc2ccccc2)c(C(=O)OC)c1C`, which survivor count (dose: 50.0 mg/kg/injection, schedule: Q01DX005 (ip), vehicle: saline with Tween-80) is on record?
A: 6 of 6

Q: And the survivor count [3]?
A: 6 of 6

Q: For `COc1ccc2c(c1)CC[C@@H]1[C@@H]2CC[C@]2(C)C(=O)/C(=C/C=C/N(C)C)C[C@@H]12`, which survivor count [3] is on record?
A: 6 of 6

Q: And the survivor count (dose: 200.0 mg/kg/injection, schedule: Q01DX005 (ip), vehicle: saline with Tween-80)?
A: 6 of 6

Q: How did the survivor count (dose: 1.56 mg/kg/injection, schedule: Q01DX009 (ip), vehicle: distilled water + Tween-80) turn out when `CCOC(=O)c1cc(OC(C)=O)c2ccc(OC)c(OC)c2c1` was run?
A: 6 of 6

Q: What about the survivor count (dose: 3.13 mg/kg/injection, schedule: Q01DX009 (ip), vehicle: distilled water + Tween-80) of the same compound?
A: 6 of 6

Q: And the T/C (dose: 12.5 mg/kg/injection, schedule: Q01DX009 (ip), vehicle: distilled water + Tween-80)?
A: 94, 99 [4 of 5 alive], 102, 130 % of control

Q: What about the T/C (dose: 25.0 mg/kg/injection, schedule: Q01DX009 (ip), vehicle: distilled water + Tween-80) of the same compound?
A: 91, 93, 95, 99 % of control

Q: Which results are given for `C=C1C(=O)OC2/C=C(\C)CC/C=C(/C=O)C(OC(=O)C(C)C)C(O)C12` (stereo unspecified)?
A: survivor count (dose: 16.0 mg/kg/injection, schedule: Q01DX009 (ip), vehicle: saline + alcohol): 1 of 4; survivor count (dose: 32.0 mg/kg/injection, schedule: Q01DX009 (ip), vehicle: saline + alcohol): 1 of 4

Q: How did the survivor count [1] turn out when `O=C(O)c1cccc([N+](=O)[O-])c1C(=O)c1ccccc1` was run?
A: 6 of 6

Q: Which survivor count (dose: 100.0 mg/kg/injection, schedule: Q01DX005 (ip), vehicle: saline) does the source give for `CN(C)Cc1cn(C)c2ccccc12` here?
A: 0 of 5

Q: What about the survivor count (dose: 200.0 mg/kg/injection, schedule: Q01DX005 (ip), vehicle: saline) of the same compound?
A: 0 of 6

Q: With `COc1cccc2c1C(=O)c1c(O)c3c(c(O)c1C2=O)C[C@@](O)(C(O)CO)C[C@@H]3OC1CC(N(Cc2ccccc2)Cc2ccccc2)C(O)C(C)O1` (stereo partly specified) as the compound, how does the T/C (dose: 25.0 mg/kg/injection, schedule: Q04DX003 (ip), vehicle: water) read?
A: 148 % of control

Q: And the T/C (dose: 50.0 mg/kg/injection, schedule: Q04DX003 (ip), vehicle: water)?
A: 140 % of control

Q: And the T/C (dose: 200.0 mg/kg/injection, schedule: Q04DX003 (ip), vehicle: water)?
A: 126 and 142 % of control

Q: How did the T/C (dose: 1.56 mg/kg/injection, schedule: Q04DX002 (ip), vehicle: saline) turn out when `O=S(=O)(O)O.[NH-]C(c1ccccc1)C([NH-])c1ccccc1.[Pt+2]` (stereo unspecified) was run?
A: 146 % of control

Q: What about the T/C (dose: 6.25 mg/kg/injection, schedule: Q04DX002 (ip), vehicle: saline) of the same compound?
A: 125 and 137 % of control

Q: And the T/C (dose: 12.5 mg/kg/injection, schedule: Q04DX002 (ip), vehicle: saline)?
A: 139 % of control

Q: For `CC12CCC(Br)C(C)(C)C1C(O)C=C1C(=O)OCC1O2` (stereo unspecified), which survivor count (dose: 64.0 mg/kg/injection, schedule: Q01DX005 (ip), vehicle: Klucel (hydroxypropylcellulose) (HPC)) is on record?
A: 0 of 5

Q: For `O=C(Nc1cc(-c2ccccc2)[nH]n1)c1ccccc1F`, which survivor count (dose: 60.0 mg/kg/injection, schedule: Q01DX005 (ip), vehicle: saline with Tween-80) is on record?
A: 6 of 6

Q: What about the survivor count (dose: 120.0 mg/kg/injection, schedule: Q01DX005 (ip), vehicle: saline with Tween-80) of the same compound?
A: 6 of 6

Q: With `CN(C)CCCNc1c2ccccc2nc2cc([N+](=O)[O-])ccc12` as the compound, how does the T/C (dose: 0.39 mg/kg/injection, schedule: Q01DX009 (ip), vehicle: water) read?
A: 133 % of control

Q: And the T/C (dose: 3.13 mg/kg/injection, schedule: Q01DX009 (ip), vehicle: water)?
A: 127 % of control

Q: What about the survivor count (dose: 6.25 mg/kg/injection, schedule: Q01DX009 (ip), vehicle: water) of the same compound?
A: 2 of 6

Q: And the survivor count (dose: 12.5 mg/kg/injection, schedule: Q01DX009 (ip), vehicle: water)?
A: 3 of 6

Q: What about the survivor count (dose: 25.0 mg/kg/injection, schedule: Q01DX009 (ip), vehicle: water) of the same compound?
A: 0 of 6

Q: What about the survivor count (dose: 50.0 mg/kg/injection, schedule: Q01DX009 (ip), vehicle: water) of the same compound?
A: 0 of 6

Q: And the survivor count (dose: 100.0 mg/kg/injection, schedule: Q01DX009 (ip), vehicle: water)?
A: 0 of 6

Q: What about the survivor count (dose: 200.0 mg/kg/injection, schedule: Q01DX009 (ip), vehicle: water) of the same compound?
A: 0 of 6

Q: Which results are given for `CCN(CC)CC(C)C1NS(=O)(=O)c2ccccc21` (stereo unspecified)?
A: survivor count (dose: 12.5 mg/kg/injection, schedule: Q01DX009 (ip), vehicle: saline): 6 of 6; survivor count (dose: 100.0 mg/kg/injection, schedule: Q01DX009 (ip), vehicle: saline with Tween-80): 6 of 6; survivor count [4]: 3 of 6

Q: Which survivor count (dose: 100.0 mg/kg/injection, schedule: Q01DX005 (ip), vehicle: Klucel (hydroxypropylcellulose) (HPC)) does the source give for `NC(=O)CC(NC(=O)OCC1c2ccccc2-c2ccccc21)C(=O)O` (stereo unspecified) here?
A: 1 of 6

Q: And the survivor count [2]?
A: 0 of 6

Q: With `O=C(O)c1ccc(O)c(=O)cc1` as the compound, how does the survivor count (dose: 100.0 mg/kg/injection, schedule: Q01DX001 (ip), vehicle: saline with Tween-80) read?
A: 1 of 6

Q: And the survivor count (dose: 200.0 mg/kg/injection, schedule: Q01DX001 (ip), vehicle: saline with Tween-80)?
A: 0 of 6

Q: What about the survivor count (dose: 400.0 mg/kg/injection, schedule: Q01DX001 (ip), vehicle: saline with Tween-80) of the same compound?
A: 0 of 6

Q: How did the survivor count (dose: 240.0 mg/kg/injection, schedule: Q01DX005 (ip), vehicle: Klucel (hydroxypropylcellulose) (HPC)) turn out when `CC1(C)C(=O)C2=C(OC3([Se]2)C(=O)C(C)(C)C(=O)C(C)(C)C3=O)C(C)(C)C1=O` was run?
A: 1 of 6

Q: With `CN=C(N)c1ccc(N=C(N)c2ccc(N=C(N)c3ccc(N=C(O)c4cccc(C(O)=Nc5ccc(C(N)=Nc6ccc(C(N)=Nc7ccc(C(N)=NC)cc7)cc6)cc5)c4)cc3)cc2)cc1` as the compound, how does the T/C (dose: 100.0 mg/kg/injection, schedule: Q04DX003 (ip), vehicle: saline with Tween-80) read?
A: 127 % of control [4 of 6 alive]

Q: What about the survivor count [1] of the same compound?
A: 0 of 6

Q: And the survivor count (dose: 400.0 mg/kg/injection, schedule: Q04DX003 (ip), vehicle: saline with Tween-80)?
A: 0 of 6

Q: `CCCCCCCCCCCOC(=O)c1ccc(O)cc1` was tested. Which survivor count [4] did it give?
A: 5 of 6
